Results are given in words; binding and its absence hold for the method and conditions named. Binding can be weak; no strength is given. Where a sequence is shown, tags or fusion partners need not be part of it.

Binding data for 4 molecules are collected here from paper PMC11847324, “A communication hub for phosphoregulation of kinetochore-microtubule attachment” (Current biology : CB, 2024).

The target in this assay is Ndc80c^dwarf with a 6-His affinity tag on the N-terminus of Ndc80 (S. cerevisiae). The assay is described as follows: pull-down; Ndc80c^dwarf (6-His on the N-terminus of Ndc80) immobilised to saturation on Ni-NTA agarose, incubated 30 min with the GST fusion of an Mps1 segment eluted from glutathione agarose; 20 mM HEPES pH 7.2, 150 mM NaCl, 2 mM imidazole, 2 mM TCEP; eluted with 500 mM imidazole, SDS-PAGE; both purified.

B1: GST fusion of Mps1 354–424 (domain or fragment)
chain: GSGGSGGSGGSGGSSEKREVLRNISINANHADNLLQQENKRLKRSLDDAITNENINSKNLEVFYHRPAPKPPVTKKVEIVEPAKS
Take B1: the binding result is listed as “no binding”.
Turning to GSGGSGGSGGSGGSSDDEEFTTPPKLSNFGSALLSHTEKTS (domain or fragment) [GST fusion of Mps1 22–46], the binding result is “no binding”.
With GSGGSGGSGGSGGSERRSKRFLISNRTTKLGPAKR (domain or fragment) [GST fusion of Mps1 151–171], the binding entry is reported as “binds”.

B2: GST fusion of Mps1 217–267 (domain or fragment)
chain: GSGGSGGSGGSGGSDYDSIDFGDLNPIQYIKKHNLPTSDLPLISQIYFDKQREENRQAALRKHSS
Regarding B2, the binding result is “no binding”.
